From patent publication US11091559B2, “Anti-ALK antibodies and methods for use thereof” (Celldex Therapeutics, Inc., priority 2015, dated 2021)

Tested on: N-terminal region of human ALK (M1-G640): NTR, MAM1, LdLa, MAM2 domains
Assay: Domain mapping by Western blotting
Type: binding
Settings: domain bound, antibodies to the N-terminal region

Molecule	Bin/Domain (domain)
Ab332: anti-ALK monoclonal antibody; VL SEQ ID NO: 419, VH SEQ ID NO: 420 (antibody, V domains shown, VH domain - Ab332; VL domain - Ab332) VH: EVQLQQSGPELVKPGTSVKISCKASGYTFTDYYMNWMKQSHGKSLEWIGDINPNNGVTSYNQKFKGKATLTVDKSSSTAYMELRSLTSEDSAVYYCAREDYGSNYFDYWGQGTTLTVSS VL: DIVLTQSPASLAVSLGQRATISCKASQSVDYDGDSYMNWYQQKPGQPPKLLIYAASNLESGIPARLSGSGSGTDFTLNIHPVEEEDAATYYCQQSNEDPPTFGGGTKLEIRR	NTR
Ab331: anti-ALK monoclonal antibody; VL SEQ ID NO: 417, VH SEQ ID NO: 418 (antibody, V domains shown, VH domain - Ab331; VL domain - Ab331) VH: EVQVVETGGGVVQPGKSLEITCATSGLTFSTAWMYWVRQSSDRRLEWIARIKDKSNNFASDYVESVRGRFTISRDDSRSSVYLQMNNLKEEDTATYYCTTSYGYAWGQGVMVTVSS VL: DIQMTQSPSSMSASLGDRITITCQASQDIGNYLIWFQQKPGKSPRPLIYYATNLANGVPSRFSGSRSGSEYSLTITSLESEDMADYHCLQYKQHLTFGSGTKLEIER	MAM1
Ab329: anti-ALK monoclonal antibody; VL SEQ ID NO: 413, VH SEQ ID NO: 414 (antibody, V domains shown, VH domain - Ab329; VL domain - Ab329) VH: QVQLKESGPGLVKPSATLSLTCTVSGFSLTSYHVCWIRQTPGKGLEWMGVIWGDGRTTYNPPLKSRLSISRDTSKSQVFLKMSSLKTEDTATYYCARATMTGHGDAWGQGASVTVSS VL: DIQMTQSPASLSASLEEIVTITCQASQDIDNYLSWYQQKPGKSPHLLIHSATSLADGVPSRFSGGRSGTQFSLKINRLQVEDTGIYYCLQHYSGWTFGGGTKLELKR	MAM1
